These are yes or no findings as the source states them, for the method shown. In cells and extracts the contact can be indirect. Some results given as binding are weak or reduced against the parent protein; the word gives no strength. Tags and fused reporters may be left off the sequences shown.
Target: T1, PGK1-HA (UniProt P00558)
T1 sequence: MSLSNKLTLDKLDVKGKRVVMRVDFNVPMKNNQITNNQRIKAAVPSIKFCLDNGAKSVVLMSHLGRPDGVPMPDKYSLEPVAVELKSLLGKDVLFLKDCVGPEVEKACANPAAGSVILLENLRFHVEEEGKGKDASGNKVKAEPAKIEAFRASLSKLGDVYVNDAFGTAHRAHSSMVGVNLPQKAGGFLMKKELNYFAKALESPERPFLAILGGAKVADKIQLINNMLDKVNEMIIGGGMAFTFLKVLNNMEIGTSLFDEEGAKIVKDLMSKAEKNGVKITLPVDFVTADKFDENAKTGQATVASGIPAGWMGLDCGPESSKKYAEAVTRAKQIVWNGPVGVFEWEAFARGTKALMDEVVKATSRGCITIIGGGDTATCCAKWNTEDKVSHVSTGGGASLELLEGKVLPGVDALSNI
Assay: co-IP; from human embryonic kidney cells with Pierce Anti-HA Agarose; Western blotting

Amino acid sequences for entries named in this document (tags omitted).
UniProt Q99497: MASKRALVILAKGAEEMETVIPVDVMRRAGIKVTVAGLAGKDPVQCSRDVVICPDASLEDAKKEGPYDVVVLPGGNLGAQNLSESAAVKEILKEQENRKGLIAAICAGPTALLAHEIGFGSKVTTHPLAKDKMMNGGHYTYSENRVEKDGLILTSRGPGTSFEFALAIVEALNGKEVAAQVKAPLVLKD

binding: binds
Substance: DJ-1 in human embryonic kidney-293T cells (from UniProt Q99497 1-189)

— PMC11338267, “Phosphoglycerate kinase is a central leverage point in Parkinson’s disease–driven neuronal metabolic deficits” (Science Advances, 2024)
